PMC4811778 (eLife, 2016)
No constants are given. Whether binding was seen depends on the method and setting. Binding seen in cells or lysates may run through a third protein. A yes stands for co-enrichment or nearness to the bait. Other partners may have been found. Where a sequence is shown, tags or fusion partners need not be part of it. One block for each binder: values may come before it.

Molecular target: T1, TAP-tagged yeast exosome subunit Rrp46 (Saccharomyces cerevisiae) (UniProt P53256)
T1 sequence: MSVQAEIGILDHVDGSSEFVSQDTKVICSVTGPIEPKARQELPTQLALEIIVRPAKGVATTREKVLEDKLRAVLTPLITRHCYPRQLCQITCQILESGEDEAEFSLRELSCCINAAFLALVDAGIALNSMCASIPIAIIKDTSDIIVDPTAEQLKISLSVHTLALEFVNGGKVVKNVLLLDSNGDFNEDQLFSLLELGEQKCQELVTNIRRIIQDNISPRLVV
Assay: affinity purification with mass spectrometry; TAP-tagged Rrp46 immunoprecipitated from yeast with IgG beads, gentle wash buffer (150 mM NaCl), no mono-Q step; crude immunoprecipitate, 740 proteins identified by LC-MS/MS

- binding: binds
B1: exosome subunit Rrp42 (protein, UniProt Q12277 1-265)
chain: MSLSVAEKSYLYDSLASTPSIRPDGRLPHQFRPIEIFTDFLPSSNGSSRIIASDGSECIVSIKSKVVDHHVENELLQVDVDIAGQRDDALVVETITSLLNKVLKSGSGVDSSKLQLTKKYSFKIFVDVLVISSHSHPVSLISFAIYSALNSTYLPKLISAFDDLEVEELPTFHDYDMVKLDINPPLVFILAVVGNNMLLDPAANESEVANNGLIISWSNGKITSPIRSVALNDSNVKSFKPHLLKQGLAMVEKYAPDVVRSLENL

- binding: binds
B2: exosome catalytic subunit Rrp44 (protein, UniProt Q08162 1-1001)
chain: MSVPAIAPRRKRLADGLSVTQKVFVRSRNGGATKIVREHYLRSDIPCLSRSCTKCPQIVVPDAQNELPKFILSDSPLELSAPIGKHYVVLDTNVVLQAIDLLENPNCFFDVIVPQIVLDEVRNKSYPVYTRLRTLCRDSDDHKRFIVFHNEFSEHTFVERLPNETINDRNDRAIRKTCQWYSEHLKPYDINVVLVTNDRLNREAATKEVESNIITKSLVQYIELLPNADDIRDSIPQMDSFDKDLERDTFSDFTFPEYYSTARVMGGLKNGVLYQGNIQISEYNFLEGSVSLPRFSKPVLIVGQKNLNRAFNGDQVIVELLPQSEWKAPSSIVLDSEHFDVNDNPDIEAGDDDDNNESSSNTTVISDKQRRLLAKDAMIAQRSKKIQPTAKVVYIQRRSWRQYVGQLAPSSVDPQSSSTQNVFVILMDKCLPKVRIRTRRAAELLDKRIVISIDSWPTTHKYPLGHFVRDLGTIESAQAETEALLLEHDVEYRPFSKKVLECLPAEGHDWKAPTKLDDPEAVSKDPLLTKRKDLRDKLICSIDPPGCVDIDDALHAKKLPNGNWEVGVHIADVTHFVKPGTALDAEGAARGTSVYLVDKRIDMLPMLLGTDLCSLKPYVDRFAFSVIWELDDSANIVNVNFMKSVIRSREAFSYEQAQLRIDDKTQNDELTMGMRALLKLSVKLKQKRLEAGALNLASPEVKVHMDSETSDPNEVEIKKLLATNSLVEEFMLLANISVARKIYDAFPQTAMLRRHAAPPSTNFEILNEMLNTRKNMSISLESSKALADSLDRCVDPEDPYFNTLVRIMSTRCMMAAQYFYSGAYSYPDFRHYGLAVDIYTHFTSPIRRYCDVVAHRQLAGAIGYEPLSLTHRDKNKMDMICRNINRKHRNAQFAGRASIEYYVGQVMRNNESTETGYVIKVFNNGIVVLVPKFGVEGLIRLDNLTEDPNSAAFDEVEYKLTFVPTNSDKPRDVYVFDKVEVQVRSVMDPITSKRKAELLLK

- binding: binds
B3: exosome subunit Rrp4 (protein, UniProt P38792 1-359)
chain: MSEVITITKRNGAFQNSSNLSYNNTGISDDENDEEDIYMHDVNSASKSESDSQIVTPGELVTDDPIWMRGHGTYFLDNMTYSSVAGTVSRVNRLLSVIPLKGRYAPETGDHVVGRIAEVGNKRWKVDIGGKQHAVLMLGSVNLPGGILRRKSESDELQMRSFLKEGDLLNAEVQSLFQDGSASLHTRSLKYGKLRNGMFCQVPSSLIVRAKNHTHNLPGNITVVLGVNGYIWLRKTSQMDLARDTPSANNSSSIKSTGPTGAVSLNPSITRLEEESSWQIYSDENDPSISNNIRQAICRYANVIKALAFCEIGITQQRIVSAYEASMVYSNVGELIEKNVMESIGSDILTAEKMRGNGN
